Assay results: patent publication US10017523B2, “NAMPT inhibitors and methods” (Genzyme Corporation, priority 2014, dated 2018)
Structures were worked out from names or drawings and are uncertain.

By UniProt entry, the sequences of proteins in these tests, tags left out.
UniProt P43490, whole entry: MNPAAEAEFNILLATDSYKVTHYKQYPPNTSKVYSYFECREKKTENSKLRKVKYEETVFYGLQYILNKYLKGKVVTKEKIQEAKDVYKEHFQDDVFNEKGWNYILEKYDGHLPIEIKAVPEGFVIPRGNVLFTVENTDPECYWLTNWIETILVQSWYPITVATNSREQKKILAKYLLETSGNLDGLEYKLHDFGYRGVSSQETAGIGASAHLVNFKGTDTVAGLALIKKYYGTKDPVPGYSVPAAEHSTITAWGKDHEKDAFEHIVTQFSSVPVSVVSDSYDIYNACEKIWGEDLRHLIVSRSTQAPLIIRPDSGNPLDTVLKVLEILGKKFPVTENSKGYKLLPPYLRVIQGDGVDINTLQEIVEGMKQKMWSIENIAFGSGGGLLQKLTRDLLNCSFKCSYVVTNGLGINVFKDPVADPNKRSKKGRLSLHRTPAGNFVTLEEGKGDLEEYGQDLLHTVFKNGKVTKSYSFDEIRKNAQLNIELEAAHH

Columns and labels:
[1] = target: Recombinant NAMPT enzyme (Homo sapiens, UniProt P43490); experiment: Inhibition of NAMPT enzymatic activity; details: read-out: NAMPT IC50; 6 hours at 37° C., NMN product detected
Protocol: Recombinant NAMPT enzyme (MBL) was briefly pre-incubated in the absence or presence of inhibitor followed by addition of nicotinamide. Enzymatic reaction was allowed to proceed for 6 hours at 37° C. Reaction was terminated and NMN reaction product detected using the method as described in: Zhang R Y, Qin Y, Lv X Q, Wang P, Xu T Y, Zhang L, Miao C Y., Anal. Biochem. 2011 May 1; 412(1):18-25.
(§1) The 50% inhibitory concentration (IC50) is the concentration at which 50% of the maximal activity was inhibited.

[2] = tested on: acute T-cell leukemia (JURKAT); experiment: Anti-proliferative activity on JURKAT cell line; details: read-out: Anti-Proliferative Activity JURKAT; 72 hours, CellTiterGlo
Protocol: (§2) Leukemia/Lymphoma cell lines (ATCC) were diluted in vendor-recommended media and incubated in the absence or presence of inhibitor for 72 hours at 37° C./5% CO2 prior to viability determination using CellTiterGlo (Promega) per manufacturer's instruction. The human cell lines studied include acute T-cell leukemia (JURKAT), chronic myelogenous leukemia (K562), and B-cell acute lymphocytic leukemia (NALM6 and SUP-B15).

[3] = tested on: primary human T cells; experiment: Anti-proliferative activity on T cells (CD3/CD28 stimulated, CellTiterGlo); details: read-out: T CELL IC50; CD3/CD28 beads, 72 hours
Protocol: (§3) Fresh primary human T cells obtained from Analytical Biological Services (Wilmington, Del.) were diluted to 1×10^^6 cells per ml in AIM-V medium (Invitrogen), and stimulated with CD3/CD28 beads (Invitrogen) in the absence or presence of inhibitor for 72 hours at 37° C./5% CO2 prior to viability determination using CellTiterGlo (Promega) per manufacturer's instruction.
as §1

[4] = tested on: chronic myelogenous leukemia (K562); experiment: Anti-proliferative activity on K562 cell line; details: read-out: Anti-Proliferative Activity K562; 72 hours, CellTiterGlo
Protocol: as §2

[5] = tested on: B-cell acute lymphocytic leukemia (SUP-B15); experiment: Anti-proliferative activity on SUP-B15 cell line; details: read-out: Anti-Proliferative Activity SUP-B15; 72 hours, CellTiterGlo
Protocol: as §2

[6] = tested on: primary human B cells; experiment: Anti-proliferative activity on B cells (anti-IgM stimulated, CellTiterGlo); details: read-out: B CELL IC50; anti-IgM 10 ug/ml, 72 hours
Protocol: as §3, with “human B” for “human T”, “with anti-IgM (10 ug/ml) (KPL)” for “with CD3/CD28 beads (Invitrogen)”
as §1

[7] = tested on: B-cell acute lymphocytic leukemia (NALM6); experiment: Anti-proliferative activity on NALM6 cell line; details: read-out: Anti-Proliferative Activity NALM6; 72 hours, CellTiterGlo
Protocol: as §2

Compound	IC50 [1] [nM]	IC50 [2] [nM]	IC50 [3] [µM]	IC50 [4] [nM]	IC50 [5] [nM]	IC50 [6] [nM]	IC50 [7] [nM]
Cc1cc(CNC(=O)c2ccc(-c3ccc4c(c3)C(=O)N(C)C3(CCN(C(C)C)CC3)O4)nc2)on1	2	16.6	1.18	47.6	1.51	9.5	6.14
CC(C)CCN1CCC2(CC1)CC(=O)c1nc(-c3ccc(C(=O)NCc4cncc(F)c4)cc3)ccc1O2	127	203	9.67	822	12.9	107	174
Cc1cc(CNC(=O)c2ccc(-c3ccc4c(c3)C(=O)NC3(CCN(C(C)C)CC3)O4)cc2)on1	4	42.1	5.68	350	4.11	33.4	23.6
